Assay results published in US9487489B2, “Halogen-substituted pyrazole derivatives as pest-control agents” (BAYER CROPSCIENCE AKTIENGESELLSCHAFT, priority 2013, dated 2016).
Some results were stated once for a whole list of compounds, not compound by compound.

Columns and labels:
[1] = tested on: nymphs of the American dog tick (Dermacentor variabilis); assay: Dermacentor variabilis systemic in vivo activity against American dog tick nymphs on rats (T6); details: versus placebo group
[2] = tested on: adult cat fleas (Ctenocephalides felis); assay: Ctenocephalides felis systemic in vivo activity against fleas on rats (T7); details: versus placebo group
[3] = day 2, 10 mg/kg intraperitoneal
[4] = day 9, 10 mg/kg intraperitoneal

Cn1nc(C(F)(F)C(F)(F)F)c(C(F)(F)F)c1-n1cc(-c2ccc(Cl)c(C(=O)NC3CC3)c2)cn1 [Ic-1, 2-Chloro-N-cyclopropyl-5-[2′-methyl-5′-(pentafluoroethyl)-4′-(trifluoromethyl)-2′H-1,3′-bipyrazol-4-yl]benzamide] was tested, and the “efficacy against tick nymphs” value [1, 3] was greater than 90%, the “efficacy against tick nymphs” value [1, 4] was greater than 80% and the efficacy against fleas [2, 3] was greater than 95%. It also gave an efficacy against fleas [2, 4] greater than 90%.
